At least one compound was matched to its structure with a doubt left.
Key:
Assay in all cases: mantle cell lymphoma 7 day pretreatment + 4-day co-treatment model (Cell Titer Glo)
Settings in all cases: drug + tazemetostat
Granta-519 = tested on: Granta-519
Z-138 = tested on: Z-138
Maver-1 = tested on: Maver-1
Jeko-1 = tested on: Jeko-1
JVM-2 = tested on: JVM-2
Mino = tested on: Mino

Measured: combinatorial effect by Loewe volumes

CC(C)C[C@H](NC(=O)CNC(=O)c1cc(Cl)ccc1Cl)B(O)O [Ixazomib, ixazomib]
A (Additive −1 to 1): all assays above
